{"source": "PubChem BioAssay AID1688", "about": "(National Center for Advancing Translational Sciences (NCATS), 2009)", "note": "About 2,400 (1.1%) of roughly 220,000 compounds were called active. Inconclusive results, whose numbers are uncertain, are shown with a selection of clear calls. Calls come from the whole dose curve; as a rule, active = well fitted inhibition curve with a large enough effect; inconclusive = small, poorly fitted or top-dose-only effect, or effect the other way; inactive = no such curve, though single readings can be large or run the other way. A potency beside an inconclusive call is a rough fit, not a confirmed value. % is set by controls: 0 for no effect and ±100 for the full control effect; potency is the fitted concentration of half-maximal effect."}
{"experiment": "qHTS Multiplex Assay to Identify Dual Action Probes in a Cell Model of Huntington: Aggregate Formation (GFP); note: nearly all actives have a fitted effect of over 60% in size", "settings": "PC12 HttQ103-GFP aggregates, Acumen cytometry, 40 h; activity change, negative = inhibition: at 46.1 µM (top of the series) unless noted", "in_short": "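PC12 cells stably carrying ecdysone-inducible HTT exon 1 Q103–GFP were induced with tebufenozide (100 nM final) and treated with library compounds in titration. GFP aggregates in lysates were counted by laser scanning cytometry.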"}
{"compound": "CCc1ccc(NC(=O)COc2ccc(F)cc2C(=O)c2cnn(-c3ccccc3)c2)cc1", "Potency": "inconclusive: 3.55 µM [inhibitor, single point]"}
{"compound": "CCOC(=O)N1CCc2c(sc3nc4n(c(=O)c23)N=C(c2ccc(OC)cc2)CS4)C1", "activity change, negative = inhibition": "inactive: -13% [at 9.22 µM]"}
{"compound": "CCOc1ccccc1C1C(C(N)=O)=C(C)Nc2nc(CCCO)nn21", "note": "(stereo not given)", "activity change, negative = inhibition": "inactive: 10.9%"}
{"compound": "O=C1CC(c2ccccc2)CC(O)=C1C=NCc1ccncc1", "note": "(stereo not given)", "Potency": "inconclusive: 0.891 µM [inhibitor, single point]"}
{"compound": "c1cc2c(cc1-c1csc(NNC3=NCCCCC3)n1)OCCO2", "activity change, negative = inhibition": "inactive: -25.2%"}
{"compound": "Cc1cc(C)cc(NC(=S)NCc2ccc3[nH]c4c(c3c2)CCCC4)c1", "Potency": "inconclusive: 35.5 µM [inhibitor, single point]"}
{"compound": "CC(C)CC(=O)Nc1ccc(C(=O)NNC(=S)NC(=O)C2CCCCC2)cc1", "Potency": "active: 10 µM"}
{"compound": "O=C(Cn1cnc2scc(-c3ccccc3)c2c1=O)N1CCOCC1", "Potency": "inconclusive: 10 µM [activator, partial curve]"}
{"compound": "COc1ccc(NC(=O)CCCN2C(=O)/C(=C\\c3ccco3)SC2=S)cc1", "Potency": "inconclusive: 35.5 µM [inhibitor, single point]"}
{"compound": "Cc1sc2nc(COC(=O)c3cccc(S(=O)(=O)N(C)c4ccccc4)c3)[nH]c(=O)c2c1C", "Potency": "inconclusive: 8.91 µM [activator, single point]"}
{"compound": "COc1ccc(C(=O)c2c(C(F)(F)F)oc3c2C(=O)c2ccccc2C3=O)cc1", "Potency": "active: 3.16 µM"}
{"compound": "Cc1ccc(-n2c(SCC(=O)c3c(N)n(C)c(=O)n(C)c3=O)nc3sc4c(c3c2=O)CCCC4)c(C)c1", "Potency": "inconclusive: 2 µM [inhibitor, full curve, poor fit]"}
{"compound": "O=C(Nc1ccc(-c2nc3ccccc3o2)cc1)c1ccc(N2CCOCC2)c([N+](=O)[O-])c1", "Potency": "inconclusive: 3.16 µM [inhibitor, single point]"}
{"compound": "COc1ccccc1CNC(=O)c1csc(Cc2ccc(Cl)cc2)n1", "Potency": "inconclusive: 35.5 µM [inhibitor, single point]"}
{"compound": "Cc1ccc(Cl)cc1NC(=O)Cn1cccc1", "Potency": "inconclusive: 1.12 µM [inhibitor, single point]"}
{"compound": "O=C(O)CC1(CC(=O)Nc2ccccc2N2CCOCC2)CCCC1", "activity change, negative = inhibition": "inactive: -0.597% [at 9.22 µM]"}
{"compound": "CC(C)c1cc(C(=O)N2CCCC(C(=O)c3ccc4ccccc4c3)C2)on1", "note": "(stereo not given)", "Potency": "inconclusive: 11.2 µM [inhibitor, partial curve]"}
{"compound": "CN1CCN(C(=O)c2sc(=S)n(-c3ccccc3)c2N)CC1", "Potency": "inconclusive: 1 µM [activator, single point]"}
{"compound": "C/C(=N/N=C/c1ccc(N(C)C)cc1)c1ccccc1", "activity change, negative = inhibition": "inactive: -4.66%"}
{"compound": "O=[N+]([O-])c1ccc2c(c1)C(N1CCOCC1)/C(=C/COc1ccc3ccccc3c1Br)O2", "note": "(stereo not given)", "Potency": "inconclusive: 12.6 µM [inhibitor, single point]"}
{"compound": "O=C(CCCc1ccccc1)N1CCN(c2ccc([N+](=O)[O-])cc2)CC1", "Potency": "inconclusive: 31.6 µM [inhibitor, single point]"}
{"compound": "O=C(Cc1ccccc1)N/N=C/c1ccc2cccc(O)c2n1", "activity change, negative = inhibition": "inactive: 15.6% [at 9.22 µM]"}
{"compound": "O=C(CCn1cnc(-c2ccccc2)c1-c1ccccc1)N/N=C/c1ccc(O)cc1", "activity change, negative = inhibition": "inactive: 20.1%"}
{"compound": "Cn1nc(-c2ccc(Cl)cc2)c2cc(C(=O)N3CCN(C(=O)c4ccco4)CC3)sc21", "Potency": "inconclusive: 35.5 µM [inhibitor, single point]"}
{"compound": "CC(C)(C)C1CCC2(CC1)C(C#N)=C(SCC(=O)NC1CCCCC1)NC(=O)C2C#N", "note": "(stereo not given)", "Potency": "active: 11.2 µM"}
{"compound": "COc1ccc(-c2nc(S(=O)(=O)c3ccccc3)c(N3CCOCC3)o2)cc1", "activity change, negative = inhibition": "inactive: 0.788%"}
{"compound": "O=c1cc(-c2c(F)c(F)c(F)c(F)c2F)oc2c(F)c(F)c(F)c(F)c12", "Potency": "inconclusive: 35.5 µM [inhibitor, single point]"}
{"compound": "CCCc1cc(O)c2c(C)cc(=O)oc2c1", "Potency": "inconclusive: 35.5 µM [inhibitor, single point]"}
{"compound": "CCc1c(C)nc2ccc(Br)cc2c1SCCC#N", "Potency": "active: 7.94 µM"}
{"compound": "COc1ccc(NC(=O)c2ccccc2NS(=O)(=O)c2ccc(C)cc2)c([N+](=O)[O-])c1", "activity change, negative = inhibition": "inactive: -13.1%"}
{"compound": "CC(=O)NC1=C(N(C)C2CCS(=O)(=O)C2)C(=O)c2ccccc2C1=O", "note": "(stereo not given)", "Potency": "active: 12.6 µM"}
{"compound": "CC(C)C(=O)Nc1cccc(-c2csc(-c3ccccc3)n2)c1", "Potency": "inconclusive: 35.5 µM [inhibitor, single point]"}
{"compound": "O=C(C1COc2ccccc2O1)N1CCc2ccccc21", "note": "(stereo not given)", "Potency": "inconclusive: 25.1 µM [inhibitor, single point]"}
{"compound": "CCOC(=O)c1c(NC(=O)Cn2cnc([N+](=O)[O-])n2)sc2c1CCCC2", "Potency": "inconclusive: 0.501 µM [activator, partial curve, poor fit]"}
{"compound": "Cc1ccccc1CNC(=O)c1ccccc1C(=O)O", "Potency": "active: 0.0089 µM"}
{"compound": "COc1ccc(C(=O)NCCC2=CCCCC2)cc1", "activity change, negative = inhibition": "inactive: 4.22%"}
{"compound": "NC(=O)C1CCN(CC(=O)NCc2ccccc2)CC1", "activity change, negative = inhibition": "inactive: 2.57%"}
{"compound": "Cc1ccc(Oc2ncccc2COC(=O)Nc2ccccc2C)cc1", "Potency": "inconclusive: 35.5 µM [inhibitor, single point]"}
{"compound": "COc1ccc(-c2n[nH]c(=S)n2/N=C/C=C\\c2ccccc2OC)cc1", "activity change, negative = inhibition": "inactive: 20.7%"}
{"compound": "O=C(Nc1nnc(-c2ccc3c(c2)OCCO3)o1)c1ccc(Cc2ccccc2)cc1", "Potency": "inconclusive: 35.5 µM [inhibitor, single point]"}
{"compound": "CN(c1ccccc1)C(c1ccc(F)cc1)c1nnnn1CC1CCCO1", "note": "(stereo not given)", "Potency": "inconclusive: 5.62 µM [activator, single point]"}
{"compound": "Cc1cc(C(=O)CN2C(=O)C(=O)N(C3CCCC3)C2=O)c(C)n1-c1ccc(F)cc1", "Potency": "inconclusive: 11.2 µM [inhibitor, partial curve]"}
{"compound": "c1cncc(CNc2ncnc3sc4c(c23)CCC4)c1", "Potency": "inconclusive: 12.6 µM [inhibitor, partial curve]"}
{"compound": "CC(=O)NC(=S)Nc1ccc(NC(=O)c2cccnc2Cl)cc1", "Potency": "inconclusive: 2.51 µM [activator, partial curve]"}
{"compound": "OCC1(Cc2ccccc2)CCN(Cc2ccc(-c3ccco3)cc2)CC1", "activity change, negative = inhibition": "inactive: -4.29% [at 9.22 µM]"}
{"compound": "O=c1c(Cl)c2oc3ccccc3nc-2c2ccccc12", "activity change, negative = inhibition": "inactive: -43.2% [at 9.22 µM]"}
{"compound": "CC1(C)Cc2c(sc3nc(N/N=C/c4ccccc4)[nH]c(=O)c23)CO1", "Potency": "inconclusive: 1.26 µM [inhibitor, single point]"}
{"compound": "O=C(NCc1ccoc1)c1ccc(NC(=O)c2ccccc2Cl)cc1", "Potency": "inconclusive: 7.94 µM [inhibitor, partial curve]"}
{"compound": "c1ccc(Cc2nn3c(-c4ccncc4)nnc3s2)cc1", "Potency": "inconclusive: 8.91 µM [inhibitor, partial curve]"}
{"compound": "COC(=O)[C@@H]1CC[C@H](C)[C@@H](c2ccc(C)cc2)N1C(=O)c1ccc(/C=N/OC[C@@H](O)COCc2ccco2)cc1", "Potency": "inconclusive: 22.4 µM [inhibitor, single point]"}
{"compound": "CCOC(=O)c1sc(NC(=O)c2ccc3ncsc3c2)nc1C", "Potency": "inconclusive: 3.16 µM [inhibitor, single point]"}
{"compound": "O=C(CSc1nnc(NC2CCCCC2)s1)Nc1ccc2c(c1)C(=O)c1ccccc1C2=O", "Potency": "inconclusive: 8.91 µM [inhibitor, partial curve, poor fit]"}
{"compound": "COc1cccc(OCCN2CCN(c3ncnc4c3cnn4-c3ccccc3)CC2)c1", "Potency": "inconclusive: 11.2 µM [inhibitor, partial curve]"}
{"compound": "O=C(Nc1ccc(Br)cn1)c1cccc(-c2cc3ccccc3oc2=O)c1", "Potency": "inconclusive: 15.8 µM [activator, single point]"}
{"compound": "CC[n+]1ccccc1/C=C/Nc1ccccc1", "activity change, negative = inhibition": "inactive: 16.4% [at 9.22 µM]"}
{"compound": "CN/N=C(\\Cc1nc2ccccc2[nH]1)c1ccc([N+](=O)[O-])cc1", "activity change, negative = inhibition": "inactive: 18.5%"}
{"compound": "C=CCNc1nc(-c2sc(NC(=O)CC)nc2C)cs1", "Potency": "inconclusive: 35.5 µM [inhibitor, single point]"}
{"compound": "N#Cc1ccccc1OCC(=O)OCC(=O)N1CCN(C(=O)c2ccco2)CC1", "activity change, negative = inhibition": "inactive: -2.34%"}
{"compound": "Cc1nc(Nc2ccccc2)sc1-c1ccccc1", "activity change, negative = inhibition": "inactive: 2.29%"}
{"compound": "COc1cc(/C=C2\\SC(=O)N(c3cccc(Cl)c3)C2=O)cc([N+](=O)[O-])c1O", "activity change, negative = inhibition": "inactive: 17.8% [at 9.22 µM]"}
{"compound": "CC/C(=N/Nc1ccc(Cl)cc1)c1cnnc(SC)n1", "activity change, negative = inhibition": "inactive: -19.1%"}
{"compound": "CCCCNS(=O)(=O)c1ccc(S(=O)(=O)NCc2ccncc2)cc1", "Potency": "active: 7.94 µM"}
{"compound": "CCO/C=C1\\SC(=S)N(c2ccc(Cl)cc2)C1=O", "activity change, negative = inhibition": "inactive: -1.99% [at 9.22 µM]"}
{"compound": "COc1ccc(Nc2nc(-c3cccs3)nc3ccccc23)cc1", "Potency": "inconclusive: 35.5 µM [inhibitor, single point]"}
{"compound": "COc1ccc(/C=C2\\C(=O)NC(=S)N2C(=O)c2ccc(C)cc2)cc1", "Potency": "inconclusive: 11.2 µM [inhibitor, partial curve]"}
{"compound": "COc1cc(C(=O)OC2CSCC2NC(=O)c2ccccc2)cc(OC)c1OC", "note": "(stereo not given)", "activity change, negative = inhibition": "inactive: 0% [at 9.22 µM]"}
{"compound": "COc1cccc(N=c2oc3ccc(OC)cc3cc2-c2nc3ccccc3[nH]2)c1", "Potency": "inconclusive: 12.6 µM [activator, partial curve]"}
{"compound": "O=C(NCc1ccccc1)c1ncn[nH]1", "activity change, negative = inhibition": "inactive: -14.6% [at 9.22 µM]"}
{"compound": "O=[N+]([O-])c1ccccc1/C=C/C=N/n1c(-c2ccccc2)n[nH]c1=S", "Potency": "inconclusive: 10 µM [activator, partial curve, poor fit]"}
{"compound": "COc1cc(/C=C2/SC(=S)N(CC3CCCO3)C2=O)ccc1O", "note": "(stereo not given)", "activity change, negative = inhibition": "inactive: 18.1%"}
